From paper PMC6355839, “Functional role of PGAM5 multimeric assemblies and their polymerization into filaments” (Nature Communications, 2019)
Results are given in words; binding and its absence hold for the method and conditions named. Some entries that bind do so weakly or less than the wild type.

B1: endogenous cleaved PGAM5 (after CCCP treatment) (protein, UniProt Q96HS1 25-289)
chain: AVAVGKPRAGGDAEPRPAEPPAWAGGARPGPGVWDPNWDRREPLSLINVRKRNVESGEEELASKLDHYKAKATRHIFLIRHSQYHVDGSLEKDRTLTPLGREQAELTGLRLASLGLKFNKIVHSSMTRAIETTDIISRHLPGVCKVSTDLLREGAPIEPDPPVSHWKPEAVQYYEDGARIEAAFRNYIHRADARQEEDSYEIFICHANVIRYIVCRALQFPPEGWLRLSLNNGSITHLVIRPNGRVALRTLGDTGFMPPDKITRS
B2: ∆48 PGAM5 F244E (domain or fragment, UniProt Q96HS1 49-289)
chain: GGARPGPGVWDPNWDRREPLSLINVRKRNVESGEEELASKLDHYKAKATRHIFLIRHSQYHVDGSLEKDRTLTPLGREQAELTGLRLASLGLKFNKIVHSSMTRAIETTDIISRHLPGVCKVSTDLLREGAPIEPDPPVSHWKPEAVQYYEDGARIEAAFRNYIHRADARQEEDSYEIFICHANVIRYIVCRALQEPPEGWLRLSLNNGSITHLVIRPNGRVALRTLGDTGFMPPDKITRS

Columns and labels:
[1] = molecular target: endogenous cleaved PGAM5 (after CCCP treatment) (human (endogenous in HEK293T)) (UniProt Q96HS1); assay: native gel or EMSA; BN-PAGE, 4–16% native-PAGE gel, mitochondrial and cytoplasmic fractions of HEK293T cells untreated or 4 h after 50 µM CCCP, immunoblot with anti-PGAM5
[2] = molecular target: ∆48 PGAM5 F244E (UniProt Q96HS1); assay: SEC; Superose 6 10/300 GL Increase; 20 mM Tris-Cl pH 8.0, 150 mM NaCl, 0.5 mM TCEP; salt titration up to 1 M NaCl; both purified

Binder	binding [1]	binding [2]
B1	binds	–
B2	–	no binding
